# Laboratory results from PubChem BioAssay AID445 (National Center for Advancing Translational Sciences (NCATS), 2006).
# This is one part of the list. Shown are side measurements of this screen, not its main read-out; they come without a call. Compounds called inactive in the main read-out are mostly missing here. Words in brackets tell the shape of the fitted curve; partial curves, single points and poor fits give uncertain potencies.
# Assay: IkB Signaling
# Settings: ABC-DLBCL IkBa-CBG/CBR dual luciferase ratio (green luciferase fused to IkBa over red control in OCI-Ly3 lymphoma cells), 4 h
# Summary of the method: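 Curves were fitted separately to fusion (green), unfused (red) and ratio luminescence, then classed by r2, magnitude and activity. Cells: OCI-Ly3, 4 h compound plus doxycycline at 37C; 10 uM MG-132 defined full response.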
# [1] = measured here: control luc red channel unless noted
smiles,measurement,setting,value
CCCCOc1ccc(C(=O)NCCc2sc(-c3cccc(F)c3)nc2C)cc1,AC50,[1],"15.8 µM [falling, partial curve]"
O=C(Nc1ccc(NC(=O)c2cccs2)cc1)c1cccc(Br)c1,AC50,[1],"0.1 µM [rising, full curve, poor fit]"
CNc1ccc(C(O)(C(F)(F)F)C(F)(F)F)cc1C(O)(C(F)(F)F)C(F)(F)F,AC50,[1],"25.1 µM [falling, partial curve]"
COc1ccc(N2CCN(S(=O)(=O)c3ccc(OC)c(-c4noc(C)n4)c3)CC2)cc1,AC50,[1],"39.8 µM [falling, single point]"
O=C(c1cc2c(s1)-c1ccccc1OC2)N1CCCC1,AC50,[1],"10 µM [falling, partial curve]"
CN(C)CCC(=O)c1ccc2c(c1)OCO2,AC50,[1],"12.6 µM [falling, partial curve]"
c1ccc2c(c1)nc(N1CCN(C3CCCCC3)CC1)c1nnnn12,AC50,[1],"3.98 µM [falling, partial curve]"
CC(C)(C)c1csc(NC(=O)CSc2nc3ccccc3c(=O)[nH]2)n1,AC50,[1],"15.8 µM [falling, partial curve]"
CCOc1ccccc1NC(=O)C(C)Sc1nc(-c2ccccc2)c(C#N)c(=O)[nH]1 (stereo not drawn),AC50,[1],"5.01 µM [falling, partial curve]"
COc1cccc(C2C=C(c3ccc(OC)cc3OC)Nc3nnnn32)c1 (stereo not drawn),AC50,[1],"12.6 µM [falling, partial curve]"
COc1cc(NC(=O)c2nc3ccccc3nc2C)cc(OC)c1OC,AC50,[1],"25.1 µM [falling, partial curve]"
COc1cc(CN(C(=O)c2cccc(Cl)c2)c2ccccn2)cc(OC)c1OC,AC50,[1],"39.8 µM [falling, partial curve]"
CCC(C(=O)N1CCN(c2ccccc2F)CC1)n1nc(C)c2sc3ccccc3c2c1=O (stereo not drawn),AC50,[1],"5.01 µM [falling, partial curve]"
COc1ccc(NC(=O)CCn2nc(-c3ccccc3OC)c3c(C)cc(C)nc32)cc1,AC50,[1],"15.8 µM [falling, partial curve]"
Cc1ccccc1OCc1ccc(-c2nc(C#N)c(N3CCN(C)CC3)o2)o1,AC50,[1],"20 µM [falling, single point]"
CC1=C(C(=O)OCC(C)C)C(c2ccc(OCc3ccccc3)cc2)N2C(=O)CCSC2=N1 (stereo not drawn),AC50,[1],"12.6 µM [falling, partial curve]"
Cc1cc(NC(=O)CSc2nc3c([nH]c4ccccc43)c(=O)n2-c2ccccc2)no1,AC50,[1],"1 µM [rising, full curve, poor fit]"
O=c1cc(-c2ccc(F)cc2)nc(SCc2nc(-c3cccc(Cl)c3)no2)[nH]1,AC50,[1],"6.31 µM [rising, single point]"
O=C(C1CCCN(S(=O)(=O)c2ccc(Br)s2)C1)N1CCN(c2ccc(F)cc2)CC1 (stereo not drawn),AC50,[1],"20 µM [falling, partial curve]"
CCc1ccc(NC(=O)CSc2nccn2-c2cccc(C)c2C)cc1,AC50,[1],"39.8 µM [falling, single point]"
Cc1ccc(C2CC(=O)N(Cc3ccccc3)c3c2c(C)nn3-c2nc(C)cc(C)n2)cc1 (stereo not drawn),AC50,[1],"25.1 µM [falling, partial curve]"
CC1CN(C(=O)N2CCC(C(=O)NCCC3=CCCCC3)CC2)c2cc(Cl)ccc2O1 (stereo not drawn),AC50,[1],"39.8 µM [falling, single point]"
COC(=O)c1c(C)[nH]c(C(=O)COC(=O)Cc2ccc3c(c2)OCCO3)c1C,AC50,[1],"25.1 µM [falling, single point]"
Cc1ccc(C)n1-c1c(C(=O)NCCCN2CCN(c3ccc(F)cc3)CC2)sc2ncccc12,AC50,[1],"2 µM [falling, full curve]"
O=C(c1c(F)c(F)c(F)c(F)c1F)N1CCN(c2cccc(C(F)(F)F)c2)CC1,AC50,[1],"31.6 µM [falling, single point]"
Cc1ccc(Cl)cc1-n1ncc2c(NCCCn3ccnc3)ncnc21,AC50,[1],"15.8 µM [falling, single point]"
O=C(C1CCN(S(=O)(=O)Cc2ccccc2)CC1)N1CCN(c2ccc(F)cc2)CC1,AC50,[1],"39.8 µM [falling, single point]"
CCOc1ccc(Cc2nnc(SCC(=O)c3ccc(OC)cc3)o2)cc1,AC50,[1],"20 µM [falling, partial curve]"
CCOC(=O)c1c(C)[nH]c(C(=O)OC)c1CCC(=O)OC,AC50,[1],"12.6 µM [rising, partial curve]"
CCOC(=O)Cc1csc(SCC(=O)c2c(N)n(CC(C)C)c(=O)n(C)c2=O)n1,AC50,[1],"12.6 µM [falling, partial curve]"
Cc1cccc(-c2nnn3c2nc(NCCc2ccc(S(N)(=O)=O)cc2)c2ccccc23)c1,AC50,[1],"1 µM [falling, full curve]"
COc1ccc(OC)c(NC(=O)CSc2cn(CC(=O)N3CCCCCC3)c3ccccc23)c1,AC50,[1],"20 µM [falling, partial curve]"
CCSc1ncc(Cl)c(C(=O)N(Cc2ccc(N(C)C)cc2)Cc2ccco2)n1,AC50,[1],"12.6 µM [falling, partial curve]"
Cc1ccc(NC(=O)CSc2nc3ccccc3nc2Cc2ccccc2)c(C)c1,AC50,[1],"20 µM [falling, partial curve, poor fit]"
Cc1cccc(NC(=O)c2cc(-c3ccc4c(c3)OCCO4)on2)c1,AC50,[1],"0.0631 µM [falling, full curve]"
COc1ccc(C)cc1NC(=O)C1CCN(S(=O)(=O)c2ccc3c(c2)CCCN3C(C)=O)CC1,AC50,[1],"39.8 µM [falling, single point]"
Cc1ccc(Cl)cc1N1CCN(C(=O)C2CCN(S(=O)(=O)c3cccnc3)CC2)CC1,AC50,[1],"25.1 µM [falling, partial curve]"
Cc1nc2nc(NCc3cccc(Cl)c3)[nH]n2c(=O)c1Cc1ccccc1,AC50,[1],"39.8 µM [falling, single point]"
COC(=O)c1ccc(Cn2c(SCc3ccccc3F)nc3ccncc32)cc1,AC50,[1],"20 µM [falling, single point]"
CC1C(=O)Nc2ccc(S(=O)(=O)NCc3ccc(N(C)C)cc3)cc2NC1=O (stereo not drawn),AC50,[1],"31.6 µM [falling, single point]"
O=C(Nc1ccccc1)c1ccccc1O,AC50,[1],"12.6 µM [falling, partial curve]"
COc1ccc(OCCn2c(C(C)Oc3ccccc3)nc3ccccc32)cc1 (stereo not drawn),AC50,[1],"15.8 µM [falling, partial curve]"
C=CCn1c(SCC(=O)c2cccs2)nc2sc(C)cc2c1=O,AC50,[1],"3.16 µM [falling, full curve, poor fit]"
Cc1ccc(Cl)cc1-n1ncc2c(NCc3ccc(F)cc3)ncnc21,AC50,[1],"25.1 µM [falling, single point]"
CCN(CC)S(=O)(=O)c1ccc2c(c1)nc(CN(C)C(=O)Nc1cccc(Cl)c1)n2C,AC50,[1],"3.16 µM [rising, single point]"
COc1cccc(C(=O)c2cn(CC(=O)Nc3cccc(C(F)(F)F)c3)c3nc(C)ccc3c2=O)c1,AC50,[1],"39.8 µM [falling, partial curve]"
CC(=O)N1CCc2cc(S(=O)(=O)NC(CC(C)C)C(=O)NCCc3ccc(C)cc3)ccc21 (stereo not drawn),AC50,[1],"10 µM [falling, partial curve]"
COc1ccc(Cn2c(CCC(=O)Nc3ccc(C)c(C)c3)nc3cccnc32)cc1,AC50,[1],"39.8 µM [rising, single point] [measured here: IkB-luc green channel]"
CCCN(CCC)C(=O)CN1C(=O)CSc2ccc(S(=O)(=O)N3CCC(C)CC3)cc21,AC50,[1],"12.6 µM [falling, single point]"
CN(C)Cc1nc2c(c(=O)[nH]1)C1(CCCCC1)Cc1ccccc1-2,AC50,[1],"39.8 µM [rising, single point] [measured here: IkB-luc green channel]"
Cc1ccc(-c2nc(-c3cc4cccc(OCc5ccc(F)cc5)c4oc3=O)no2)cc1,AC50,[1],"31.6 µM [falling, partial curve]"
CCN(c1ccccc1)S(=O)(=O)c1nnc(NC(=O)C(C)(C)C)s1,AC50,[1],"1 µM [rising, full curve]"
CCN1CCc2nc3sc(C(=O)c4ccccc4)c(N)c3cc2C1,AC50,[1],"39.8 µM [falling, single point]"
CC(CNC(=O)c1ccc(CSc2nc3ccncc3n2Cc2ccc(F)cc2)cc1)c1ccccc1 (stereo not drawn),AC50,[1],"10 µM [falling, partial curve]"
Cc1nn(Cc2ccccc2)c(C)c1NC(=O)CSc1nnc(-c2cc(Cl)ccc2O)n1C,AC50,[1],"5.01 µM [falling, partial curve]"
CCc1ccc(CNCc2c(C(=O)O)c(C)n(Cc3c(F)cccc3Cl)c2C)cc1,AC50,[1],"25.1 µM [falling, single point]"
CCOc1cccc(C(=O)N(Cc2ccc(N(C)C)cc2)CC2CCCO2)c1 (stereo not drawn),AC50,[1],"12.6 µM [falling, partial curve]"
CCOc1ccc(C(=O)CCN2CCCCC2)cc1,AC50,measured here: IkB-luc green channel,"6.31 µM [falling, single point]"
same,AC50,measured here: control luc red channel,"5.01 µM [falling, partial curve]"
COc1ccc(-c2cccc(NS(=O)(=O)c3ccc(C)s3)c2)nn1,AC50,[1],"2.51 µM [falling, full curve, poor fit]"
COCCCNC(=O)c1oc2c(c1C)-c1nn(Cc3ccc(Cl)cc3)cc1CC2,AC50,[1],"0.0398 µM [falling, full curve]"
O=C(c1cc2ccccn2n1)N1CCN(c2ccccn2)CC1,AC50,[1],"10 µM [falling, partial curve]"
COC(=O)C1=C(C)N(c2ccc(F)c(Cl)c2)C(=O)C1,AC50,[1],"3.16 µM [falling, partial curve]"

# Exported with tabs: entries from further up
smiles	measurement	setting	value
CN(C)CCC(=O)c1ccc2c(c1)OCO2	AC50	[1]	12.6 µM [falling, partial curve]
O=C(Nc1ccccc1)c1ccccc1O	AC50	[1]	12.6 µM [falling, partial curve]
CN(C)Cc1nc2c(c(=O)[nH]1)C1(CCCCC1)Cc1ccccc1-2	AC50	[1]	39.8 µM [rising, single point] [measured here: IkB-luc green channel]
